Values quoted from earlier work, collected in US20050009124A1, “Assays for detection of phosphoinositide kinase and phosphatase activity” (Echelon Biosciences Incorporated, priority 2001, published 2005).
At least one structure is not confirmed: it was looked up by name or label, or the drawing left a doubt.

Test system: PI 3-K from bovine brain
Settings: read-out: Reported IC50 Values; cited from earlier work

In the case of `O=c1cc(N2CCOCC2)oc2c(-c3ccccc3)cccc12` [LY294002], the IC50 is given as 1400 nM.
